The target of test [1] is T1, FPA, full length, yeast two-hybrid fusion (Arabidopsis thaliana) (UniProt Q8LPQ9).
T1 sequence: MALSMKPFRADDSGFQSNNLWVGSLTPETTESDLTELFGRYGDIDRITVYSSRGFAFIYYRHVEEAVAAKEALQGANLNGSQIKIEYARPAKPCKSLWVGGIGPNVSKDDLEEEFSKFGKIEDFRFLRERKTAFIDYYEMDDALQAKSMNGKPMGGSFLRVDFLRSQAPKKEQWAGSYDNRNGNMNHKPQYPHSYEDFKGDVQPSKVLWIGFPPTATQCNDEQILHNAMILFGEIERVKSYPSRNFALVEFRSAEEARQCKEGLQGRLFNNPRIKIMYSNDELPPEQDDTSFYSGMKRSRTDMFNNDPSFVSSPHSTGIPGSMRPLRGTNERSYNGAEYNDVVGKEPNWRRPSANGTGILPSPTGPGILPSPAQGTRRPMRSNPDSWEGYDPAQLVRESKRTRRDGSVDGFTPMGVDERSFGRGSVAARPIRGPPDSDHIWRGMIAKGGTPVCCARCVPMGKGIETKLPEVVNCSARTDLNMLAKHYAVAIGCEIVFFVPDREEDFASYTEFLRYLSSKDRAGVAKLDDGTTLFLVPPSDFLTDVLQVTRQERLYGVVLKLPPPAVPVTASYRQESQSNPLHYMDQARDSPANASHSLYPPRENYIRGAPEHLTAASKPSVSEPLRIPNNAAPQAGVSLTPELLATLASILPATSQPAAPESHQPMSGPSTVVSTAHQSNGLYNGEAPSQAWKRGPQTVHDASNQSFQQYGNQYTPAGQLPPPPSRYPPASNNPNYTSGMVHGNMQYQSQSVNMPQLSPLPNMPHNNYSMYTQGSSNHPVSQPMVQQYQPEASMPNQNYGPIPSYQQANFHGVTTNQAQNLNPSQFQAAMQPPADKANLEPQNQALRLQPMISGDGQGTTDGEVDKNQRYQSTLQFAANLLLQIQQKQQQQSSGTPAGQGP
The experiment in a line: two-hybrid; two plasmids (AD, BD) co-transformed into yeast strain AH109; growth on SD/-LWHA; full-length and truncated FPA and PCFS4.

For test [2], the target named is T2, FPA with a FLAG tag, expressed in Arabidopsis protoplasts (Arabidopsis thaliana) (UniProt Q8LPQ9).
T2 sequence: T1 sequence
Description: co-IP; proteins expressed in Arabidopsis protoplasts; immunoprecipitated with anti-FLAG M2 magnetic beads, 2 h at 4 °C; lysis buffer 50 mM phosphate pH 7.4, 150 mM NaCl, 0.2% Triton X-100, 10% glycerol; blots with anti-FLAG and anti-MYC.

Test [3] has as its target T3, PCFS4-MYC (PCFS4 with 12× MYC, native promoter, in PCFS4-MYCres transgenic plants) (Arabidopsis thaliana) (UniProt Q0WPF2).
T3 sequence: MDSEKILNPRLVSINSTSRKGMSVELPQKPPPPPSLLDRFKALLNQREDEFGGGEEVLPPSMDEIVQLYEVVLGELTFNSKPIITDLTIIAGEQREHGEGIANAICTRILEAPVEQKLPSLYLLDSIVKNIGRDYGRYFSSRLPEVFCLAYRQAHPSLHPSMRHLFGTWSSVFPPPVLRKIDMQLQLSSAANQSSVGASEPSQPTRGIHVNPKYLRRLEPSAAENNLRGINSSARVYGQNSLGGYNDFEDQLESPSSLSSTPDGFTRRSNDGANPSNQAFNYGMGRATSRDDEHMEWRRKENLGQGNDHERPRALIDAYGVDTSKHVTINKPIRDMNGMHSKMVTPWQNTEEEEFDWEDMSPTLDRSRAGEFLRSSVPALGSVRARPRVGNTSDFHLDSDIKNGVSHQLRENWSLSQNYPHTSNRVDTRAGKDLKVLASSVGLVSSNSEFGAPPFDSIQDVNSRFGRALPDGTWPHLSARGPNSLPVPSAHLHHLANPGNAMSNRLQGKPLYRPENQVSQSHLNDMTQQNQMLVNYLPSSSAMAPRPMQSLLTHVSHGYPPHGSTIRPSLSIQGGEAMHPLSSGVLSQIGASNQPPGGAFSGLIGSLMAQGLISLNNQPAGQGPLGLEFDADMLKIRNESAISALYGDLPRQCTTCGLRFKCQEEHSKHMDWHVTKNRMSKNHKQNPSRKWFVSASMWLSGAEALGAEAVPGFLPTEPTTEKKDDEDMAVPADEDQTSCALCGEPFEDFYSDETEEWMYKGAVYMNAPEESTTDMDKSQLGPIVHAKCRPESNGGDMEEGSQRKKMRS
The experiment in a line: co-IP; total protein extracts of 12-day-old transgenic Arabidopsis plants (PCFS4-MYC or CLPS3-FLAG; wild type as control) on anti-MYC or anti-FLAG M2 magnetic beads, 2 h at 4 °C, 150 mM NaCl, 0.1% Triton X-100, pH 7.4; blots with the indicated antibodies.

The target in test [4] is T4, FPA with a FLAG tag (Arabidopsis protoplasts) (Arabidopsis thaliana), Q8LPQ9.
T4 chain: T1 sequence
The experiment in a line: co-IP; Arabidopsis protoplasts co-transformed with FLAG-tagged FPA and a MYC-tagged protein; lysate (150 mM NaCl, 0.2% Triton X-100, pH 7.4) on anti-FLAG M2 magnetic beads, 2 h at 4 °C; blots with anti-FLAG and anti-MYC. Conditions: remark: other sources report otherwise.

For test [5], the target named is T5, FPA with a FLAG tag (Arabidopsis protoplasts) (Arabidopsis thaliana) (UniProt Q8LPQ9).
T5 sequence: T1 sequence
The test is described as above.

The target of test [6] is T6, PCFS4 (endogenous, Arabidopsis plants) (Arabidopsis thaliana (endogenous in Arabidopsis plants)) (UniProt Q0WPF2).
T6 sequence: T3 sequence
The experiment in a line: co-IP; total protein extracts of 12-day-old transgenic Arabidopsis plants (PCFS4-MYC or CLPS3-FLAG; wild type as control) on anti-MYC or anti-FLAG M2 magnetic beads, 2 h at 4 °C, 150 mM NaCl, 0.1% Triton X-100, pH 7.4; blots with the indicated antibodies.

Results are given in words; binding and its absence hold for the method and conditions named. For part of these data: Binding seen in cells or lysates may run through a third protein. Some entries that bind do so weakly or less than the wild type. Sequences can lack the tags named with a protein.

B1: PCFS4, full length, yeast two-hybrid fusion (protein, UniProt Q0WPF2 1-808)
chain: T3 sequence
Take B1: the binding result in test [1] was “binds”.

B2: PCFS4 with a MYC tag, expressed in Arabidopsis protoplasts (protein, UniProt Q0WPF2 1-808)
chain: T3 sequence
For the molecule B2, the binding result in test [2] is “binds”.

B3: FPA (endogenous, Arabidopsis plants) (protein, UniProt Q8LPQ9 1-901)
chain: T1 sequence
Turning to B3, the binding result in test [3] was “binds”.

B4: CstF64 with MYC tag (Arabidopsis protoplasts), Q9M9G6 1-461 (protein)
chain: MASSSSQRRCVFVGNIPYDATEEQLREICGEVGPVVSFRLVTDRETGKPKGYGFCEYKDEETALSARRNLQSYEINGRQLRVDFAENDKGTDKTRDQSQGGPGLPSTTTVTESQKQIGGPVDSNMHQPVGLHLATTAASVIAGALGGPQVGSQFTQSNLQVPASDPLALHLAKMSRSQLTEIISSIKLMATQNKEHARQLLVSRPQLLKAVFLAQVMLGIVSPQVLQSPNIVQAPSHMTGSSIQDAQLSGQNLLPPLAQRSQQLSRAPHSQYPVQQSSKQPFSQIPQLVAQPGPSSVNPPPRSQVKVENAPFQRQQVVPASTNIGYSSQNSVPNNAIQPSQVPHQALPNSVMQQGGQTVSLNFGKRINEGPPHQSMNRPSKMMKVEDRRTTSLPGGHVSNSMLPNQAQAPQTHISPDVQSTLLQQVMNLTPEQLRLLTPEQQQEVLKLQQALKQDHMMQPS
As to B4, in test [4], the binding entry is on record as “no binding”.

B5: CPSF100 with MYC tag (Arabidopsis protoplasts) (protein, UniProt Q9LKF9 1-739)
chain: MGTSVQVTPLCGVYNENPLSYLVSIDGFNFLIDCGWNDLFDTSLLEPLSRVASTIDAVLLSHPDTLHIGALPYAMKQLGLSAPVYATEPVHRLGLLTMYDQFLSRKQVSDFDLFTLDDIDSAFQNVIRLTYSQNYHLSGKGEGIVIAPHVAGHMLGGSIWRITKDGEDVIYAVDYNHRKERHLNGTVLQSFVRPAVLITDAYHALYTNQTARQQRDKEFLDTISKHLEVGGNVLLPVDTAGRVLELLLILEQHWSQRGFSFPIYFLTYVSSSTIDYVKSFLEWMSDSISKSFETSRDNAFLLRHVTLLINKTDLDNAPPGPKVVLASMASLEAGFAREIFVEWANDPRNLVLFTETGQFGTLARMLQSAPPPKFVKVTMSKRVPLAGEELIAYEEEQNRLKREEALRASLVKEEETKASHGSDDNSSEPMIIDTKTTHDVIGSHGPAYKDILIDGFVPPSSSVAPMFPYYDNTSEWDDFGEIINPDDYVIKDEDMDRGAMHNGGDVDGRLDEATASLMLDTRPSKVMSNELIVTVSCSLVKMDYEGRSDGRSIKSMIAHVSPLKLVLVHAIAEATEHLKQHCLNNICPHVYAPQIEETVDVTSDLCAYKVQLSEKLMSNVIFKKLGDSEVAWVDSEVGKTERDMRSLLPMPGAASPHKPVLVGDLKIADFKQFLSSKGVQVEFAGGGALRCGEYVTLRKVGPTGQKGGASGPQQILIEGPLCEDYYKIRDYLYSQFYLL
In the case of B5, in test [5], the binding entry is recorded as “no binding”.

B6: CLPS3-FLAG (CLPS3 with 3× FLAG, native promoter, in CLPS3-FLAGres transgenic plants) (protein, UniProt Q9SR06 1-444)
chain: MAYGGPSMNPPALSGAVPGSANLKQVKLERESELRIEVSEEPLRLRVVNGTAEIFGSELPPEIWRTFPPRMKFAVFTWYGATIEMDGVTETDYTADETPMVSYINVHAILDARRRFAKASTSNDPESSQGPRVIVVGPTDSGKSTLTKMLLSWAAKQGWRPTFVDLDVGQGSITIPGSIAAAPIEMPLDPVEGFPLDMALVYYYGHASPNMNVELYKALVKELAQVLEKQFVGNPESRAAGMVINTMGWIEGIGYELLLHAIDTFNASVVLVLGQEKLFSRLKDVLRSKSNVDVVKLHKSGGVVARVKEVRKRSRNFKIQEYFYGLSKELSPYANTSSFSDLQVFRIGGGPQAPKSALPAGSTSVSNPLRVTPVNIDDRDLLHSVLAVSYAEEPDQIISSNVSGFVYVTEVNVQKKKITYLAPSPGTLPSKLLVAGSLAWLESV
B6: the binding result in test [6] is recorded as “binds”.

For the origin of these results see article PMC12591160, “Polyadenylation Complex CFII Recognizes Downstream Cis‐element for Pre‐mRNA Polyadenylation Through Interaction with an RNA‐Binding Protein in Arabidopsis”.
